According to paper PMC9855889:
No constants are given. Whether binding was seen depends on the method and setting. Tags and fused reporters may be left off the sequences shown.

Protein sequences, listed by entry. Tags and fused reporters are not part of them. Lines headed by an entry give the natural chain unless they say otherwise; changes in a name come on top.
UniProt P32589: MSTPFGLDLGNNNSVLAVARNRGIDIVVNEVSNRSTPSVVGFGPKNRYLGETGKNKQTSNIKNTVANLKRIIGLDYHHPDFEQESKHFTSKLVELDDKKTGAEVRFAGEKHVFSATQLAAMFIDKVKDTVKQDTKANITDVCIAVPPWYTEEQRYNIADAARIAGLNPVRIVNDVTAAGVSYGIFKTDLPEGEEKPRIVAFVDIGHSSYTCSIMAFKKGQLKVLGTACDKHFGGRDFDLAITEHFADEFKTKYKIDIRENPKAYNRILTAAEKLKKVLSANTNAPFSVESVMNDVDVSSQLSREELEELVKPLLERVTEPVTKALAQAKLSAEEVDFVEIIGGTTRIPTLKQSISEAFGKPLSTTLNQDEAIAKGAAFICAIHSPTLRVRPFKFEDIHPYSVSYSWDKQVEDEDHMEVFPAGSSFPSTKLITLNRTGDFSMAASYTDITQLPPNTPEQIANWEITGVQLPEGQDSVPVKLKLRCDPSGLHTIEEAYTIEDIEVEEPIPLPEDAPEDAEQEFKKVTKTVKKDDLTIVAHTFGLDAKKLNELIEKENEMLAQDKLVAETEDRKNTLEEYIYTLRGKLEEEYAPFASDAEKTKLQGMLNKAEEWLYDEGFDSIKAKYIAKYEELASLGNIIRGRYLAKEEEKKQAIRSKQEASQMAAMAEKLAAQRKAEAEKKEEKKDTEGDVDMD

Target: T1, α4-HA (Pre6-HA) (S. cerevisiae) (UniProt P40303)
T1 sequence: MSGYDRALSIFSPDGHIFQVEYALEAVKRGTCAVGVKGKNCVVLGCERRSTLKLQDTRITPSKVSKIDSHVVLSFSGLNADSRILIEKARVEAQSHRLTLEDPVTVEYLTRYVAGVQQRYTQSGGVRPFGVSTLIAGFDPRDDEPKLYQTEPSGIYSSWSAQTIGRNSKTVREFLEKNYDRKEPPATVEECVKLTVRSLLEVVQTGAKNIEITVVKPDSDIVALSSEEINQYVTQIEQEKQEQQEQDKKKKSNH
Experiment: native gel or EMSA; crude yeast extracts in 26S buffer (2 mM ATP), 4-15% native PAGE, anti-HA blot of the HA-tagged α subunit; +C bands compared in WT, sse1∆, sse1-G205D and ssa mutant strains; ATP or ADP (1 or 2 mM) added to ATP-free extracts restored the +C bands

binding: no binding
Substance: Sse1-G205D (from UniProt P32589)
